These are yes or no findings as the source states them, for the method shown. For some assays here: In cells and extracts the contact can be indirect. Some binding calls cover weakened binding; strength is not graded here. For some assays here: Tags and fused reporters may be left off the sequences shown.

The chains behind the UniProt entries cited, without tags or fusion partners. Residues count along the entry.
UniProt P05106, residues 742-788: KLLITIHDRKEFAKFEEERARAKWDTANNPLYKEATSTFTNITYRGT

The target in one experiment is T1, Histidine-tagged Gα13 (UniProt P27601).
T1 sequence: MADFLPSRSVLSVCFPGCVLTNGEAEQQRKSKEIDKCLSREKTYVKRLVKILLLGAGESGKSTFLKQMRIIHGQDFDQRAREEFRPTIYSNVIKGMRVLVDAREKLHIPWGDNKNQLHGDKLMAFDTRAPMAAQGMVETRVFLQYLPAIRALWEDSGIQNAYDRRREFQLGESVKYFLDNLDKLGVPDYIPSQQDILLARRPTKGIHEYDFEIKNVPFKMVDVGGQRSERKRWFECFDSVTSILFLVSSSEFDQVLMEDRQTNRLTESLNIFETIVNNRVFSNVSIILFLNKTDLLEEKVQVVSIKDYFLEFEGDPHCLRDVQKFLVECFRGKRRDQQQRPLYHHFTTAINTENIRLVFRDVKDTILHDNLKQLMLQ
The experiment can be described thus: ELISA; His-Gα13 (5 μg/mL) coated on 96-well microtiter plates; GST-β3CD, GST, mP6 or control peptide added for 1 h at room temperature in Tris-NP40 buffer (50 mM Tris, 10 mM MgCl2, 150 mM NaCl, 1% NP-40), then 0.25 μg/mL GST-RGS for 2 h; bound RGS detected with anti-p115 RhoGEF; both purified. On the technique in general: In an ELISA, binding on a coated surface is turned into a signal by an enzyme label.

The target in experiment [1] is T2, p115RhoGEF (endogenous, mouse platelets) (mouse (endogenous in platelets)) (UniProt Q61210).
T2 sequence: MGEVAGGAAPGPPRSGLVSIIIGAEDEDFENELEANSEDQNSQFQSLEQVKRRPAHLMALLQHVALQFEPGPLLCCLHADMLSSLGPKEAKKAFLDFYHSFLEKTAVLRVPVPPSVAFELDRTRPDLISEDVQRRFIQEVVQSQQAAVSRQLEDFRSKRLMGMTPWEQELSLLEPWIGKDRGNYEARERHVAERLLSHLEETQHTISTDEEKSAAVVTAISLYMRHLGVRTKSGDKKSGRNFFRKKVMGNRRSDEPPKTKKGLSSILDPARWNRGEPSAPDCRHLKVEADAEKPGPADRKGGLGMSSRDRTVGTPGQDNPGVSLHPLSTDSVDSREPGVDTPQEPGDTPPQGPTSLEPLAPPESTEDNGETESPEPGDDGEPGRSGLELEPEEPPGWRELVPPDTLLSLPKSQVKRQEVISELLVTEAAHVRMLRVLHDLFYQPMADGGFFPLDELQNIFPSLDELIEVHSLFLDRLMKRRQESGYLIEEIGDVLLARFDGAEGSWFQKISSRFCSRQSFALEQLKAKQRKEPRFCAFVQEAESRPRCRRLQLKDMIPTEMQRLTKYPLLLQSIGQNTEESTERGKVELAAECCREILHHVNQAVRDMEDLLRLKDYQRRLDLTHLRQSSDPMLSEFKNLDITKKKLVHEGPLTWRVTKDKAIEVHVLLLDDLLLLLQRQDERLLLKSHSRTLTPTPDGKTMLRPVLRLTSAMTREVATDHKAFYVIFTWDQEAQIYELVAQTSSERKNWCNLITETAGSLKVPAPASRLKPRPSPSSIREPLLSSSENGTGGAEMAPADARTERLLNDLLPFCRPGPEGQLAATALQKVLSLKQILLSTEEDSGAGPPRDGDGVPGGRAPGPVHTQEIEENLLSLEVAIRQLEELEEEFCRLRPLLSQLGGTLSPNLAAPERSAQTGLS
The experiment can be described thus: co-IP; washed mouse platelets (WT or β3-/-; pre-treated with aspirin 500 μM and RGDS or RGES 2 mM, or Eptifibatide 40 μM or vehicle), resting or thrombin-stimulated; lysed in HEPES-NP40 buffer; IP with anti-p115RhoGEF or IgG, blot for Gα13; low level in resting platelets, enhanced by thrombin, almost 3-fold higher in β3-/- platelets.

For experiment [2], the target named is T2, p115RhoGEF (endogenous, mouse platelets) (mouse (endogenous in platelets)). As to the kind of experiment: co-IP; wild-type mouse platelets pre-treated with control peptide (myr-FAAAKL) or mP6 (200 μM, DMSO) for 3 min, thrombin 0.03 U/mL for 10 seconds; IP with anti-p115RhoGEF, blot for Gα13.
In experiment [3] the target is T3, Gα13 (endogenous, mouse platelets) (mouse (endogenous in platelets)) (UniProt P27601).
T3 sequence: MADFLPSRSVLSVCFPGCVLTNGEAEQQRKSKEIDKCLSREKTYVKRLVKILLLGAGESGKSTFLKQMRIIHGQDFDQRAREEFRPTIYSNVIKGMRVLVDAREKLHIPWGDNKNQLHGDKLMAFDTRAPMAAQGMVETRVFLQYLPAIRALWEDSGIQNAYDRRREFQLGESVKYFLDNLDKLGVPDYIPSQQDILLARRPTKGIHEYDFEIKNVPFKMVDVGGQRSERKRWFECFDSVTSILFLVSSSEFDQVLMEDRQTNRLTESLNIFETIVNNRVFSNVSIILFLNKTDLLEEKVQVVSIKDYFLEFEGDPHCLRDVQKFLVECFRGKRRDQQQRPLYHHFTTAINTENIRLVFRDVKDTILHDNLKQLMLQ
As to the kind of experiment: co-IP; synthetic mP6 (200 μM, DMSO) added to wild-type mouse platelets before thrombin; read out as loss of Gα13 from the p115RhoGEF immunoprecipitate; only the binder purified.

As for “GST-β3 cytoplasmic domain fusion protein (from UniProt P05106 742-788) (domain or fragment)”, the binding result with Histidine-tagged Gα13 is on record as “binds”.

B1: Gα13 (endogenous, mouse platelets) (protein, UniProt P27601 1-377)
chain: MADFLPSRSVLSVCFPGCVLTNGEAEQQRKSKEIDKCLSREKTYVKRLVKILLLGAGESGKSTFLKQMRIIHGQDFDQRAREEFRPTIYSNVIKGMRVLVDAREKLHIPWGDNKNQLHGDKLMAFDTRAPMAAQGMVETRVFLQYLPAIRALWEDSGIQNAYDRRREFQLGESVKYFLDNLDKLGVPDYIPSQQDILLARRPTKGIHEYDFEIKNVPFKMVDVGGQRSERKRWFECFDSVTSILFLVSSSEFDQVLMEDRQTNRLTESLNIFETIVNNRVFSNVSIILFLNKTDLLEEKVQVVSIKDYFLEFEGDPHCLRDVQKFLVECFRGKRRDQQQRPLYHHFTTAINTENIRLVFRDVKDTILHDNLKQLMLQ
On to B1, for which the binding entry in experiment [1] and in experiment [2] was “binds” each time. In the case of FEEERA (N-terminal myristoyl (Myr-)) [mP6 (Myr-FEEERA)], the binding result (with Histidine-tagged Gα13; in experiment [3]) was “binds” in each case.
